The source of these data is article PMC7392027.

Amino acid sequences for entries named in this document (tags omitted).
UniProt P09651: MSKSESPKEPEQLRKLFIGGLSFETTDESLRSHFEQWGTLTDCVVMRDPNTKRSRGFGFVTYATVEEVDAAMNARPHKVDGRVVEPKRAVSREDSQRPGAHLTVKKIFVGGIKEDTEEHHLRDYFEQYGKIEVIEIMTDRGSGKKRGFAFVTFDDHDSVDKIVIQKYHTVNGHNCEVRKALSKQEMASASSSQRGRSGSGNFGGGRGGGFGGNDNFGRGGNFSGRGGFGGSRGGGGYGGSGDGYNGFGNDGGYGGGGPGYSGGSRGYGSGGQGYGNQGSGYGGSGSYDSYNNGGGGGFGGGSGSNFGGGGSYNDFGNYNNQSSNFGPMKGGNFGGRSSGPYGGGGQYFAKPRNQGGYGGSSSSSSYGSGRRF

This experiment deals with hnRNP A1-HA (UniProt P09651). Nature of the experiment: co-IP; ZFP91-Flag and hnRNP A1-HA plasmids transfected into HCC cells (MHCC-LM3: anti-Flag IP; SK-hep1: anti-HA IP), 48 h; protein A/G agarose beads; Western blot. Background: Immunoblotting shows a protein as a band on a membrane.

Results are given in words; binding and its absence hold for the method and conditions named. Binding seen in cells or lysates may run through a third protein. Some binding calls cover weakened binding; strength is not graded here. Sequences can lack the tags named with a protein.

B1: ZFP91-Flag (enzyme, UniProt Q96JP5 1-570)
chain: MPGETEEPRPPEQQDQEGGEAAKAAPEEPQQRPPEAVAAAPAGTTSSRVLRGGRDRGRAAAAAAAAAVSRRRKAEYPRRRRSSPSARPPDVPGQQPQAAKSPSPVQGKKSPRLLCIEKVTTDKDPKEEKEEEDDSALPQEVSIAASRPSRGWRSSRTSVSRHRDTENTRSSRSKTGSLQLICKSEPNTDQLDYDVGEEHQSPGGISSEEEEEEEEEMLISEEEIPFKDDPRDETYKPHLERETPKPRRKSGKVKEEKEKKEIKVEVEVEVKEEENEIREDEEPPRKRGRRRKDDKSPRLPKRRKKPPIQYVRCEMEGCGTVLAHPRYLQHHIKYQHLLKKKYVCPHPSCGRLFRLQKQLLRHAKHHTDQRDYICEYCARAFKSSHNLAVHRMIHTGEKPLQCEICGFTCRQKASLNWHMKKHDADSFYQFSCNICGKKFEKKDSVVAHKAKSHPEVLIAEALAANAGALITSTDILGTNPESLTQPSDGQGLPLLPEPLGNSTSGECLLLEAEGMSKSYCSGTERVSLMADGKIFVGSGSSGGTEGLVMNSDILGATTEVLIEDSDSAGP
Take B1: the binding result is listed as “binds”.
